The source of these data is US20230416232A1, “PYRIMIDINE COMPOUNDS, COMPOSITIONS, AND MEDICINAL APPLICATIONS THEREOF” (Blueprint Medicines Corporation, priority 2020, published 2023).

The chains behind the UniProt entries cited, without tags or fusion partners. A line that says so, or that is headed by a name, gives the form on record, which may keep a tag or linker.
UniProt P04626, with tags, fused parts or gaps DUP772-775: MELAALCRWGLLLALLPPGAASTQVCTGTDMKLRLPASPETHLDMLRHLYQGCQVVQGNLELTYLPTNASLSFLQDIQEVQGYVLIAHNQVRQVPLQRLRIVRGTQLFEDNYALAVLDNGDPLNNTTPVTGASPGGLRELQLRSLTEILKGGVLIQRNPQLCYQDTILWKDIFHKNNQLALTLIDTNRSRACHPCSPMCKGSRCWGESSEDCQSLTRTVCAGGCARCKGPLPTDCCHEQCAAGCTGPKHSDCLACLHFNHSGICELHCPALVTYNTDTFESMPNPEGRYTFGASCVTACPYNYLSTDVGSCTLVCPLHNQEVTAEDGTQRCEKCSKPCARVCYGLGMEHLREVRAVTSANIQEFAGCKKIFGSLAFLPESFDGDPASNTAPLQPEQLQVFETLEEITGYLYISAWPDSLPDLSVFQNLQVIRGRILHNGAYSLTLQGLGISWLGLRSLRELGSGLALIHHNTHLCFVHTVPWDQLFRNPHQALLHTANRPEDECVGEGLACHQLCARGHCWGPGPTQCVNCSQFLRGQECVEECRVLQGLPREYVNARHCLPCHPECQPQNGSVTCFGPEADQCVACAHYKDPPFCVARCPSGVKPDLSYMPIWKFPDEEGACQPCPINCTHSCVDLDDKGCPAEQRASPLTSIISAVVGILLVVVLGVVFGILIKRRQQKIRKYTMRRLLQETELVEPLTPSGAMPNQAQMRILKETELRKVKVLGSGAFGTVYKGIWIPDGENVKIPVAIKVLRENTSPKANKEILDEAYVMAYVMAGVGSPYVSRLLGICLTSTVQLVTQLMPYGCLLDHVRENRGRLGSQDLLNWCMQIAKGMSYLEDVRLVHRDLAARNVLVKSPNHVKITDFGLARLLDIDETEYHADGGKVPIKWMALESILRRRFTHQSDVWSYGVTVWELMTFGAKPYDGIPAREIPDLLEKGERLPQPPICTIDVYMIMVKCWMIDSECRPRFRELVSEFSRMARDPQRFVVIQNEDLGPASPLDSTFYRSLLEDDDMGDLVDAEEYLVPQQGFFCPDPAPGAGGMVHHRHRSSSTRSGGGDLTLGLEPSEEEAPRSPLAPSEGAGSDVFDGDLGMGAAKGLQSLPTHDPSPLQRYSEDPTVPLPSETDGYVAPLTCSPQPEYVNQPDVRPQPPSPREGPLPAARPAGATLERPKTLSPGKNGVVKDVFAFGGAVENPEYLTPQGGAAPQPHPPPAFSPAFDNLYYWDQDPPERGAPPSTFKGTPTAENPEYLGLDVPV
UniProt P00533, with tags, fused parts or gaps DUP767-769: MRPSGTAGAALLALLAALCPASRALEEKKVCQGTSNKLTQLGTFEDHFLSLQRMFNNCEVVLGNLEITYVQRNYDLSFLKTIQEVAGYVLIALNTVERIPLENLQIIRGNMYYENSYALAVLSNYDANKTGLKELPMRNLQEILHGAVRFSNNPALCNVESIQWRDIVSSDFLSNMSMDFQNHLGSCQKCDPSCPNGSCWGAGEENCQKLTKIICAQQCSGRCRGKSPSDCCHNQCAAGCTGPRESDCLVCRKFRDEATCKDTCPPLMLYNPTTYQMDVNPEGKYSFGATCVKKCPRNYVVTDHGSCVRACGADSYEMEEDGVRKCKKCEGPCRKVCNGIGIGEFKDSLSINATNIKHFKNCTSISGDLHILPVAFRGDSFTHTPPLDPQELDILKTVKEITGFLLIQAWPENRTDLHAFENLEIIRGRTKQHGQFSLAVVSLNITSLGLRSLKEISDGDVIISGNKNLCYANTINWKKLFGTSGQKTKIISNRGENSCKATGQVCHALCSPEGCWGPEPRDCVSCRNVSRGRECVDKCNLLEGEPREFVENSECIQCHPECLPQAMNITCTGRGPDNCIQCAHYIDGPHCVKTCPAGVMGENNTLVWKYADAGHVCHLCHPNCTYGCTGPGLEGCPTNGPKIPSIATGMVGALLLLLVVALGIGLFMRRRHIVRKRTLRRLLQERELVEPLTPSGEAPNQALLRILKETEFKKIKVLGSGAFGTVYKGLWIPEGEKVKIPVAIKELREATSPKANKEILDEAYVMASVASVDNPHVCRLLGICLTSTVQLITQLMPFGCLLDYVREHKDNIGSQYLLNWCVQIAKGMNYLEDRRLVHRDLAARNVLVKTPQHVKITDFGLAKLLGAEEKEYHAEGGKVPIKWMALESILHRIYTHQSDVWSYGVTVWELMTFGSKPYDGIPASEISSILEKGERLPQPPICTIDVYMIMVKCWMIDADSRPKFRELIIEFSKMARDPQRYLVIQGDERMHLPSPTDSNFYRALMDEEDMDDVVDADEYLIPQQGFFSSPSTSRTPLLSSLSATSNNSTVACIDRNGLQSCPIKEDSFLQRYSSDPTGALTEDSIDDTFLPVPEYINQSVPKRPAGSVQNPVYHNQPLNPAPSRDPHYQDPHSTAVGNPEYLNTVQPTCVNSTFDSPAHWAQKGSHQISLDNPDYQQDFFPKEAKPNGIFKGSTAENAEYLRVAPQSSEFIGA
UniProt P00533, with tags, fused parts or gaps DUP768-770: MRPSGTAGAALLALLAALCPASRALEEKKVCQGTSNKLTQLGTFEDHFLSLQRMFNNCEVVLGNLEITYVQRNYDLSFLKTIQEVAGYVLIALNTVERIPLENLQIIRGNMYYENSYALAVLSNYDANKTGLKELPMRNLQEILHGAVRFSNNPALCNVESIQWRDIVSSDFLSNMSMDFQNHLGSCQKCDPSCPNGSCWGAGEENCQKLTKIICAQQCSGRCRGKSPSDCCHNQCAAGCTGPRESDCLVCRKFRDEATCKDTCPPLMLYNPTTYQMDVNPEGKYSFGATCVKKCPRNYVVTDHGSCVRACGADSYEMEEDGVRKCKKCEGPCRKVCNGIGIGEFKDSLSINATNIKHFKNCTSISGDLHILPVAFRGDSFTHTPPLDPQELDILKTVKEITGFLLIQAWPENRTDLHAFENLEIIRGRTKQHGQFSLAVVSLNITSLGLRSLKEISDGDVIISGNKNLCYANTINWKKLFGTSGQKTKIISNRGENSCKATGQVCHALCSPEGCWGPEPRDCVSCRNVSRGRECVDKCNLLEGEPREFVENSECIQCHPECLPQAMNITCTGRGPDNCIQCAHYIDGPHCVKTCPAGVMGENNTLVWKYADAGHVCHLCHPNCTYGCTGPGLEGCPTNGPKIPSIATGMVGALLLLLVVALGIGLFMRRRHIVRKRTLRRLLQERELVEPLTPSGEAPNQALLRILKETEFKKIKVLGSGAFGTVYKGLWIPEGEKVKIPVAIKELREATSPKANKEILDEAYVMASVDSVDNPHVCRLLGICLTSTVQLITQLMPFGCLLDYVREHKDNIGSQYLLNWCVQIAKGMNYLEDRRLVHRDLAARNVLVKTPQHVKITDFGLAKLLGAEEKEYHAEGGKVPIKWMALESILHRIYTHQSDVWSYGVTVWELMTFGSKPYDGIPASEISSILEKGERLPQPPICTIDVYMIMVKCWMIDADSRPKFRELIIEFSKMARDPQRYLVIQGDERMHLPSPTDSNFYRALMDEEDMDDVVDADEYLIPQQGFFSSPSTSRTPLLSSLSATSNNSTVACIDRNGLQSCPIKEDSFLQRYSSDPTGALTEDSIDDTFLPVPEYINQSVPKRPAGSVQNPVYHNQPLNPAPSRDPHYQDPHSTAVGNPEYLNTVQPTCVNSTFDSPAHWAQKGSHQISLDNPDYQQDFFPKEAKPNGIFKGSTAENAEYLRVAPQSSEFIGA
UniProt P00533, with tags, fused parts or gaps DUP771-773: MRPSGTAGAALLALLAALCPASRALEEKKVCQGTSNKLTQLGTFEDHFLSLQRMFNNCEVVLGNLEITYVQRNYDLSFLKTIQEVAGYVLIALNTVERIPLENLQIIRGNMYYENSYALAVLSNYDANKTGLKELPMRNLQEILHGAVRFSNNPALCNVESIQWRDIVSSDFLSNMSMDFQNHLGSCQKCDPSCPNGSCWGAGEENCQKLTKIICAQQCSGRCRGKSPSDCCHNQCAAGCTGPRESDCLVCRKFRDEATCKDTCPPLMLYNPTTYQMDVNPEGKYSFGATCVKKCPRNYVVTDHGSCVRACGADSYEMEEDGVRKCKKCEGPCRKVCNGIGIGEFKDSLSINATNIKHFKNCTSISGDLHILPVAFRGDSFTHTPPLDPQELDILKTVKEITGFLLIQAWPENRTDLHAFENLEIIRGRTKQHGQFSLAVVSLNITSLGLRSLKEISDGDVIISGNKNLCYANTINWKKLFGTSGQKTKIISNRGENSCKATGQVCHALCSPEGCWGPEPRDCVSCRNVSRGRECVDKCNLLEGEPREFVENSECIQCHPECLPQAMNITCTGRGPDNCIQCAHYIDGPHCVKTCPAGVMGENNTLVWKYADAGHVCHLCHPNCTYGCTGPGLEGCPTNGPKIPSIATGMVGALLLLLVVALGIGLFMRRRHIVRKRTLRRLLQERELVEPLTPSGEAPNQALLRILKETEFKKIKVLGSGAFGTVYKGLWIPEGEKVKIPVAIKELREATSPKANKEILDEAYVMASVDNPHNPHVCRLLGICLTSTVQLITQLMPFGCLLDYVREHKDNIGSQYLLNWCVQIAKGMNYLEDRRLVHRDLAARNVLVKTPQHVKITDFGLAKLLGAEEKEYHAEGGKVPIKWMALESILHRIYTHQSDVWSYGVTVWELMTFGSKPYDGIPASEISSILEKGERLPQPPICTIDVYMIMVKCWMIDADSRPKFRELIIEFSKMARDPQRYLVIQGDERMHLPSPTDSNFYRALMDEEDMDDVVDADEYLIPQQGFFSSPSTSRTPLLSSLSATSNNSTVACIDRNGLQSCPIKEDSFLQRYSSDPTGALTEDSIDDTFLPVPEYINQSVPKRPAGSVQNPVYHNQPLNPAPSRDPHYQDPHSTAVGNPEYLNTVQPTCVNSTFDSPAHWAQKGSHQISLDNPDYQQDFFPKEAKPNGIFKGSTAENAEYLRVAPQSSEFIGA

What is called IC50 is the concentration at which inhibition is half-maximal.

Type in all cases: cell-based
In test [1] the target is HER2 (A775_G776insYVMA) expressing Ba/F3 stable cell line (Homo sapiens, UniProt P04626, DUP772-775, cells depend on it). Description: Cellular proliferation (Alamar Blue) assay, HER2 (A775_G776insYVMA) Ba/F3. In general terms: Resazurin is reduced to fluorescent resorufin, in cell work by metabolically active cells.
In test [2] the target is EGFR(D770_N771insSVD) expressing Ba/F3 stable cell line (Homo sapiens, UniProt P00533, DUP768-770, cells depend on it). Description: Cellular proliferation (Alamar Blue) assay, EGFR(D770_N771insSVD) Ba/F3.
Another test relates to A431 cells. Kind of test: Cellular proliferation (Alamar Blue) assay, A431 cells.
Test [3] concerns the target EGFR (A767_dupASV) expressing Ba/F3 stable cell line (Homo sapiens, UniProt P00533, DUP767-769, cells depend on it). Description: Cellular proliferation (Alamar Blue) assay, EGFR (A767_dupASV) Ba/F3.
The target in test [4] is EGFR (H773insNPH) expressing Ba/F3 stable cell line (Homo sapiens, UniProt P00533, DUP771-773, cells depend on it). Description: Cellular proliferation (Alamar Blue) assay, EGFR (H773insNPH) Ba/F3.
Where [5] appears, read: read-out: D770 IC50, 72 hr, tested form: TFA.
Setting [6] is: read-out: A431 IC50, 72 hr, tested form: TFA.
[7] abbreviates: read-out: YVMA IC50, 72 hr, tested form: TFA.
Where [8] appears, read: read-out: A767 IC50, 72 hr, tested form: TFA.
Where [9] appears, read: read-out: NPH IC50, 72 hr, tested form: TFA.

Where two headings read alike, the source gives them in different places. The match of structure and compound is tentative.

For the molecule `C=CC(=O)Nc1cccc(Oc2nc(Nc3cnn(C)c3)ncc2-c2ccc(OC)c(F)c2)c1`, the GI50 in test [1] (read-out: YVMA IC50, 72 hr) amounted to 62 nM; in test [2] (read-out: D770 IC50, 72 hr) it was 24 nM; in test [3] (read-out: A767 IC50, 72 hr), 17 nM; in test [4] (read-out: NPH IC50, 72 hr), 52 nM. Moreover, in the test on A431 cells (read-out: A431 IC50, 72 hr), the IC50 amounted to 195 nM.

As to `C=CC(=O)Nc1cccc(Oc2nc(Nc3cnn(C)c3)ncc2-c2ccc(F)c(Cl)c2)c1`, the GI50 in test [1] (read-out: YVMA IC50, 72 hr) was 483 nM; in test [2] (read-out: D770 IC50, 72 hr), 271 nM; in test [3] (read-out: A767 IC50, 72 hr), 136 nM; in test [4] (read-out: NPH IC50, 72 hr) it was 310 nM. Further, the IC50 in the test with A431 cells (read-out: A431 IC50, 72 hr) stood at 1320 nM.

With `C=CC(=O)Nc1cccc(Oc2nc(Nc3cnn(C)c3)ncc2-c2ccc(Cl)c(F)c2)c1`, the GI50 was found to be 146 nM in test [1] (read-out: YVMA IC50, 72 hr); 35 nM in test [2] (read-out: D770 IC50, 72 hr); 42 nM in test [3] (read-out: A767 IC50, 72 hr); 82 nM in test [4] (read-out: NPH IC50, 72 hr). The IC50 in the test on A431 cells (read-out: A431 IC50, 72 hr) stood at 482 nM.

For `C=CC(=O)Nc1cccc(Oc2nc(Nc3cnn(C)c3)ncc2-c2cnc(Cl)c(F)c2)c1`, the GI50 in test [1] (read-out: YVMA IC50, 72 hr) is 57 nM; in test [3] (read-out: A767 IC50, 72 hr), 34 nM. Also, the IC50 in the test with A431 cells (read-out: A431 IC50, 72 hr) worked out at 608 nM.

In the case of `C=CC(=O)Nc1cccc(Oc2nc(Nc3cnn(C)c3)ncc2-c2ccc(F)c(F)c2)c1`, the GI50 is 212 nM in test [1] (read-out: YVMA IC50, 72 hr); 71 nM in test [2] (read-out: D770 IC50, 72 hr); 91 nM in test [3] (read-out: A767 IC50, 72 hr); 140 nM in test [4] (read-out: NPH IC50, 72 hr). In the test with A431 cells (read-out: A431 IC50, 72 hr), the IC50 is 767 nM.

With `C=CC(=O)Nc1cccc(Oc2nc(Nc3cnn(C)c3)ncc2-c2ccc(Cl)c(Cl)c2)c1`, in test [2] (setting [5]), the GI50 was 168 nM. In addition, in the test on A431 cells (setting [6]), the IC50 turned out to be 821 nM.

Take `C=CC(=O)Nc1cccc(Oc2nc(Nc3cnn(C)c3)ncc2-c2ccc(N(C)C)c(F)c2)c1`: the GI50 was found to be 197 nM in test [1] (setting [7]), 50 nM in test [2] (setting [5]), 91 nM in test [3] (setting [8]) and 44 nM in test [4] (setting [9]). In addition, the IC50 with A431 cells (setting [6]) was 108 nM.

On to `C=CC(=O)Nc1cccc(Oc2nc(Nc3cnn(C)c3)ncc2-c2ccc(C)c(F)c2)c1`, for which the GI50 in test [1] (read-out: YVMA IC50, 72 hr) came to 129 nM; in test [2] (read-out: D770 IC50, 72 hr) it was 37 nM; in test [3] (read-out: A767 IC50, 72 hr), 83 nM. Moreover, the IC50 with A431 cells (read-out: A431 IC50, 72 hr) was found to be 196 nM.

For the molecule `C=CC(=O)Nc1cccc(Oc2nc(Nc3cnn(C)c3)ncc2-c2cnc(F)c(F)c2)c1`, the GI50 in test [1] (setting [7]) was 65 nM; in test [2] (setting [5]), 34 nM; in test [3] (setting [8]), 25 nM; in test [4] (setting [9]), 23 nM. Besides, the IC50 in the test with A431 cells (setting [6]) is 586 nM.

On to `C=CC(=O)Nc1cccc(Oc2nc(Nc3cnn(C)c3)ncc2-c2cnc(OC)c(F)c2)c1`, for which the GI50 in test [1] (setting [7]) was 62 nM; in test [2] (setting [5]) it was 25 nM; in test [3] (setting [8]), 30 nM; in test [4] (setting [9]), 38 nM. In the test with A431 cells (setting [6]), the IC50 was 150 nM.

For the molecule `C=CC(=O)Nc1cccc(Oc2nc(Nc3cnn(C)c3)ncc2-c2cnc(Cl)c(C)c2)c1`, the GI50 was found to be 227 nM in test [1] (read-out: YVMA IC50, 72 hr); 84 nM in test [2] (read-out: D770 IC50, 72 hr); 96 nM in test [3] (read-out: A767 IC50, 72 hr); 61 nM in test [4] (read-out: NPH IC50, 72 hr). In addition, the IC50 in the test with A431 cells (read-out: A431 IC50, 72 hr) amounted to 1680 nM.

Take `C=CC(=O)Nc1cccc(Oc2nc(Nc3cnn(C)c3)ncc2-c2cnc(Cl)c(C(F)(F)F)c2)c1`: the GI50 in test [1] (read-out: YVMA IC50, 72 hr) is 104 nM; in test [3] (read-out: A767 IC50, 72 hr) it was 95 nM; in test [4] (read-out: NPH IC50, 72 hr), 153 nM. Also, the IC50 with A431 cells (read-out: A431 IC50, 72 hr) came out at 985 nM.
